PubChem BioAssay AID686938, Drosophila RNAi Screening Center, 2013

Purpose: 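Looking for CRAC channel components and the factors controlling them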 (primary screen)
Cell system: Drosophila S2R+ cells
Reagent: long dsRNA against Drosophila genes, about 0.25 µg dsRNA per well, roughly 10,000 cells
Duration: 5 days of knock-down before the calcium assay
Treatment: thapsigargin (SERCA pump blocker) to empty calcium stores; entry signal taken 4 min after adding it
Measurement: 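Per-well fluo-4 fluorescence in two replicates, unnormalised, measured in resting cells and 4 min after store depletion by the SERCA blocker thapsigargin; ratio of the two present in few wells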
Direction: calcium entry signal: higher = stronger calcium signal after store depletion; resting calcium signal: higher = higher resting calcium signal
Units: calcium entry signal in fluorescence units; resting calcium signal in fluorescence units
Call rule: 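Called when the plate z-score of the entry-to-rest ratio, mean of duplicates, falls below −3; wells with low overall dye signal (Fmax z below −2) or more than five off-targets excluded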
Calls: active = strongly reduced calcium entry; inactive = no strong reduction
The deposit covers about 23,000 reagents; below is a random part of those with a known target gene and a result. Of all reagents, 75 (0.33%) were called active. 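Raw plate signals without normalisation; calls rest on plate z-scores that were not deposited; ratio present for only 364 wells.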 Reagents against one gene are numbered here. Not given: the dose of the treatment.

Golgin104 (Golgin 104): calcium entry signal, replicate 1 = 4.44e7; calcium entry signal, replicate 2 = 5.62e7; resting calcium signal, replicate 1 = 2.10e7; resting calcium signal, replicate 2 = 3.91e7; outcome = inactive
CG10874: calcium entry signal, replicate 1 = 2.61e7; calcium entry signal, replicate 2 = 2.66e7; resting calcium signal, replicate 1 = 1.22e7; resting calcium signal, replicate 2 = 1.22e7; outcome = inactive
CG5084: calcium entry signal, replicate 1 = 4.21e7; calcium entry signal, replicate 2 = 5.25e7; resting calcium signal, replicate 1 = 1.77e7; resting calcium signal, replicate 2 = 2.40e7; outcome = inactive
Adk2 (Adenosine kinase 2): calcium entry signal, replicate 1 = 5.71e7; calcium entry signal, replicate 2 = 3.97e7; resting calcium signal, replicate 1 = 3.42e7; resting calcium signal, replicate 2 = 1.67e7; outcome = inactive
Lsd-2 (Lipid storage droplet-2): calcium entry signal, replicate 1 = 3.22e7; calcium entry signal, replicate 2 = 3.63e7; resting calcium signal, replicate 1 = 1.50e7; resting calcium signal, replicate 2 = 1.86e7; outcome = inactive
CG43059: calcium entry signal, replicate 1 = 2.71e7; calcium entry signal, replicate 2 = 3.70e7; resting calcium signal, replicate 1 = 1.51e7; resting calcium signal, replicate 2 = 1.67e7; outcome = inactive
Sox21b #1: calcium entry signal, replicate 1 = 2.41e7; calcium entry signal, replicate 2 = 4.35e7; resting calcium signal, replicate 1 = 1.25e7; resting calcium signal, replicate 2 = 2.28e7; outcome = inactive
Sox21b #2: calcium entry signal, replicate 1 = 5.66e7; calcium entry signal, replicate 2 = 5.92e7; resting calcium signal, replicate 1 = 2.63e7; resting calcium signal, replicate 2 = 2.77e7; outcome = inactive
Sox21b #3: calcium entry signal, replicate 1 = 5.13e7; calcium entry signal, replicate 2 = 3.40e7; resting calcium signal, replicate 1 = 2.68e7; resting calcium signal, replicate 2 = 1.69e7; outcome = inactive
Sox21b #4: calcium entry signal, replicate 1 = 5.99e7; calcium entry signal, replicate 2 = 2.17e7; resting calcium signal, replicate 1 = 2.67e7; resting calcium signal, replicate 2 = 1.00e7; outcome = inactive
sa (spermatocyte arrest): calcium entry signal, replicate 1 = 2.73e7; calcium entry signal, replicate 2 = 3.84e7; resting calcium signal, replicate 1 = 1.27e7; resting calcium signal, replicate 2 = 1.77e7; outcome = inactive
slo (slowpoke) #1: calcium entry signal, replicate 1 = 3.79e7; calcium entry signal, replicate 2 = 3.10e7; resting calcium signal, replicate 1 = 1.63e7; resting calcium signal, replicate 2 = 1.73e7; outcome = inactive
slo (slowpoke) #2: calcium entry signal, replicate 1 = 4.06e7; calcium entry signal, replicate 2 = 3.96e7; resting calcium signal, replicate 1 = 1.86e7; resting calcium signal, replicate 2 = 1.72e7; outcome = inactive
slo (slowpoke) #3: calcium entry signal, replicate 1 = 3.39e7; calcium entry signal, replicate 2 = 5.80e7; resting calcium signal, replicate 1 = 1.62e7; resting calcium signal, replicate 2 = 2.96e7; outcome = inactive
slo (slowpoke) #4: calcium entry signal, replicate 1 = 3.78e7; calcium entry signal, replicate 2 = 3.61e7; resting calcium signal, replicate 1 = 1.93e7; resting calcium signal, replicate 2 = 1.65e7; outcome = inactive

Entries listed so far whose target name begins with C or c (3):
CG10874: calcium entry signal, replicate 1 = 2.61e7; calcium entry signal, replicate 2 = 2.66e7; resting calcium signal, replicate 1 = 1.22e7; resting calcium signal, replicate 2 = 1.22e7; outcome = inactive
CG5084: calcium entry signal, replicate 1 = 4.21e7; calcium entry signal, replicate 2 = 5.25e7; resting calcium signal, replicate 1 = 1.77e7; resting calcium signal, replicate 2 = 2.40e7; outcome = inactive
CG43059: calcium entry signal, replicate 1 = 2.71e7; calcium entry signal, replicate 2 = 3.70e7; resting calcium signal, replicate 1 = 1.51e7; resting calcium signal, replicate 2 = 1.67e7; outcome = inactive
